# In ChEMBL document CHEMBL1641566, “N-(Pyridin-3-yl)benzamides as selective inhibitors of human aldosterone synthase (CYP11B2)” (Bioorg Med Chem Lett, 2011):
# Experiments:
# [1] = target: T1, Cytochrome P450 11B2, mitochondrial (Homo sapiens, UniProt P19099); assay: Inhibition of human aldosterone synthase expressed in chinese hamster V79 cells at 500 nM using 11-deoxycorticosterone as substrate; settings: read-out: INH
# T1 sequence (P19099 whole entry): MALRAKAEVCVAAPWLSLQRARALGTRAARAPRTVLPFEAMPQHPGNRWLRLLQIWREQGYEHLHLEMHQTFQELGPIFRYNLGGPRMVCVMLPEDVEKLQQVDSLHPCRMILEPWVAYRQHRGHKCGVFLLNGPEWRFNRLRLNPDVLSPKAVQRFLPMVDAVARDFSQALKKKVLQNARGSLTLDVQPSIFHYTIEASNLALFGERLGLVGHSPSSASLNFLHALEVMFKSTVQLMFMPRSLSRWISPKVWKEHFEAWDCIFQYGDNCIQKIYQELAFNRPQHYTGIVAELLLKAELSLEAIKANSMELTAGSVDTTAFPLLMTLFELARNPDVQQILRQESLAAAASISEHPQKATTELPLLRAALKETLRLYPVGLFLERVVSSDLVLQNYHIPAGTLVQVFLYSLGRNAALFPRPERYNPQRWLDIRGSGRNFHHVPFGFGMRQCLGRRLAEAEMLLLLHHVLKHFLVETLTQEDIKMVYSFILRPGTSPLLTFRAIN
# [2] = target: T2, CYP11B1 (steroid-11beta-hydroxylase) (Homo sapiens, UniProt P15538); assay: Inhibition of human steroid-11beta-hydroxylase expressed in chinese hamster V79 cells at 500 nM using 11-deoxycorticosterone as substrate
# T2 sequence (P15538 whole entry): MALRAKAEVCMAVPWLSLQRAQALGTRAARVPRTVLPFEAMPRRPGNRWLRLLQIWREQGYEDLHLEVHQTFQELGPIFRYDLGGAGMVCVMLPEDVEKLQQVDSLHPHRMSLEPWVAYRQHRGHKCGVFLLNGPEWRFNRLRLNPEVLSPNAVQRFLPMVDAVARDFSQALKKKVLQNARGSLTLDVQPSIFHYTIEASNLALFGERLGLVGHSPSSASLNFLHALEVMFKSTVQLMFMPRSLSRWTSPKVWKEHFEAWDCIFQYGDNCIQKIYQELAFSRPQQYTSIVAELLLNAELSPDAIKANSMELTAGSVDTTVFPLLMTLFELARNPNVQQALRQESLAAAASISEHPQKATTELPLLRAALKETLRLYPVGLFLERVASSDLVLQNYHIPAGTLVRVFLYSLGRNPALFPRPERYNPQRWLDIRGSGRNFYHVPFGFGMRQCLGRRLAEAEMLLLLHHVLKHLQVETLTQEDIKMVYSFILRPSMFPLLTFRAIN
compound,measurement,setting,value
O=C(Nc1cccnc1)c1cccc(F)c1,inhibition at 0.5 µM,[1],47%
same,inhibition at 0.5 µM,[2],1%
